# This list was built around the results that the source calls inconclusive (neither active nor inactive); the mix of calls is not that of the screen. For some assays here: Where the call is inconclusive, the potency comes from a doubtful curve fit. For some assays here: “Side channel” marks fits to a control or component signal instead of the main read-out. Active and inactive are the calls of the source. Unless noted, the call rests on the fitted dose curve.
# The chains behind the UniProt entries cited, without tags or fusion partners. Where a name states a change or a piece, a line headed by the entry shows the natural chain unless it says otherwise.
# UniProt Q03181: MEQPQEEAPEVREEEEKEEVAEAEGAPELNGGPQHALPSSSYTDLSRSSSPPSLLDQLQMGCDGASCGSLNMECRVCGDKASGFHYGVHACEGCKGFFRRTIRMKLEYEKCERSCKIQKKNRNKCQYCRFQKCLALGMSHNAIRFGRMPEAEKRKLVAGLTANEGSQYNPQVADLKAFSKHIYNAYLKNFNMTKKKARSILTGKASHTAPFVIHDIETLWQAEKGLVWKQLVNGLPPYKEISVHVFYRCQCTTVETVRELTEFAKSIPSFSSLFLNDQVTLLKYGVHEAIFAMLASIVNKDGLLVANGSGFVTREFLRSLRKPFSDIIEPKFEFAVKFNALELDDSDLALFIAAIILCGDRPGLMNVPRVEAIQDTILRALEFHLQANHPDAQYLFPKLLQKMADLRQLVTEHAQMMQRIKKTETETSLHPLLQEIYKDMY
# UniProt P01375, whole entry, looked up: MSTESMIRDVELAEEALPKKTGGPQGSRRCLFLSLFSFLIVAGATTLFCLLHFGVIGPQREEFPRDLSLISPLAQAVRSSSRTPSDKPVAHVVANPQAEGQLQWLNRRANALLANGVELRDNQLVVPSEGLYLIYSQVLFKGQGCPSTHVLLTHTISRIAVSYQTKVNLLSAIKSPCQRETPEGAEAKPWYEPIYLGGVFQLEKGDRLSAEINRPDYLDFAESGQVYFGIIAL
# UniProt P10828: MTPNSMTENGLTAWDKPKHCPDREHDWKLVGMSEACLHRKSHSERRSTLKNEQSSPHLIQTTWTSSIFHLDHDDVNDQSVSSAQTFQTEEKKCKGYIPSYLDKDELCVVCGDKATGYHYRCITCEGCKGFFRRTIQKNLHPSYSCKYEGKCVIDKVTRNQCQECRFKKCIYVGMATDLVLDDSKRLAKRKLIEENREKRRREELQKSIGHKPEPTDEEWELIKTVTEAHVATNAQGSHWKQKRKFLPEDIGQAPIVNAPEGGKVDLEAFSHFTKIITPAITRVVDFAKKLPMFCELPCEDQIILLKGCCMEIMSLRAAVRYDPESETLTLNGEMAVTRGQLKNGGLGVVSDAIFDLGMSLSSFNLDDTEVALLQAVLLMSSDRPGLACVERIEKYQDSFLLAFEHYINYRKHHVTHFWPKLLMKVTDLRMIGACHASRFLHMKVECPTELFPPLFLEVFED
# UniProt P19793: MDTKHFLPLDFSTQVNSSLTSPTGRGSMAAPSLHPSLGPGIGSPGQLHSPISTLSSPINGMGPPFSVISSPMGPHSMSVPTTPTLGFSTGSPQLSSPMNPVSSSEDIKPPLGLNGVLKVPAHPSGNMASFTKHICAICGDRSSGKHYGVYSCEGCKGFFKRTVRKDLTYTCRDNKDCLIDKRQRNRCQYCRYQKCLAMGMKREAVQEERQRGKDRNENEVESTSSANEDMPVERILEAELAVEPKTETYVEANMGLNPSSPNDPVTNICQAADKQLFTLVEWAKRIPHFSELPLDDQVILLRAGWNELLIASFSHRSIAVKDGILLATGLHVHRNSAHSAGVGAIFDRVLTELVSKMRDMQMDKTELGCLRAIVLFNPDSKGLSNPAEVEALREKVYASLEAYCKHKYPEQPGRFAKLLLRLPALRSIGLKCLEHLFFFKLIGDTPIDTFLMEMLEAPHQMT
# Columns and labels:
# [1] = Cellular Toxicity (caspase-3) Jurkat (AID 655; active means well fitted curve in the direction sought with a large enough effect; inconclusive means small, poorly fitted or top-dose-only effect, or another doubt; inactive means no such curve, though single readings can be large; an effect the other way counts as inactive or inconclusive;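 further: cells exposed to compound for 16 h at 37 °C before reading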); conditions: Jurkat caspase-3 activation, luminescence, DMSO = 0%, tamoxifen = 100%; at 92.2 µM (top of the series)
# Summary of the method: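 Jurkat cells (5000/well) in complete medium exposed 16 h at 37 C; caspase-3/7 activity read by Caspase-Glo luminescence after 20 min at room temperature. Normalized to DMSO and 100 uM tamoxifen; AC50 from Hill fits.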
# [2] = target: Peroxisome proliferator-activated receptor delta (Homo sapiens) (UniProt Q03181); assay: qHTS assay for small molecule agonists of peroxisome proliferator-activated receptor delta signaling (AID 588534); conditions: HEK293T PPARdelta-UAS-bla, beta-lactamase ratio, 18 h; activation: at 76.7 µM (top of the series) unless noted;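 further: 0% = DMSO basal wells and 100% = positive control agonist at 10 µM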
# Summary of the method: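 Titration series tested in agonist mode on beta-lactamase reporter cells; 18 hrs at 37 C after a 5 hr pre-incubation. Readout: CCF4 fluorescence, 2 hrs RT. Hill equation gives EC50 and maximal response.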
# [3] = target: Peroxisome proliferator-activated receptor gamma (Homo sapiens) (UniProt P37231); assay: qHTS assay for small molecule antagonists of peroxisome proliferator-activated receptor gamma signaling (AID 588537; active means well fitted inhibition curve with a large enough effect in the signal ratio, with a control signal flat, not every such curve was filed as active; inconclusive means small, poorly fitted or top-dose-only effect, or effect the other way, or a change in a side signal; the % refers to the signal ratio;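 further: reporter cells co-stimulated with 50 nM rosiglitazone agonist during compound treatment; % of control where 0% means no effect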); conditions: HEK293 PPARg-UAS-bla, beta-lactamase ratio, antagonist mode
# Summary of the method: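 Cell-based beta-lactamase assay; GW9662 served as the antagonist control. Stimulation used rosiglitazone, final 50 nM, 16 h, 37 C.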
# [4] = target: Vitamin D3 receptor (Homo sapiens) (UniProt P11473); assay: qHTS assay for small molecule agonists of vitamin D receptor signaling (AID 588543); conditions: HEK293T VDR-UAS-bla, beta-lactamase ratio, 16 h; activation: at 76.8 µM (top of the series); further: potency means the concentration at half of the fitted maximal effect
# Summary of the method: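 VDR-UAS-bla HEK293T cells, 2000/well, 2% charcoal-stripped FBS; compound titration 16 h at 37 C; CCF4 beta-lactamase ratio read. Normalized to 50 nM 1-alpha,25-dihydroxyvitamin D3 (100%) and DMSO; Hill fit gives EC50, efficacy.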
# [5] = qHTS assay for small molecule agonists of the antioxidant response element (ARE) signaling pathway (AID 651741; active means well fitted activation curve with a large enough effect in the signal ratio; inconclusive means small, poorly fitted or top-dose-only effect, or effect the other way, or a change in a side signal; the % refers to the signal ratio; further: potency means the concentration at half of the fitted maximal effect; on activation: % of control where 0% means no effect); conditions: HepG2 ARE-bla reporter, beta-lactamase FRET ratio, 16 h
# Summary of the method: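 Agonist activity is measured as ARE-driven beta-lactamase expression in a stable HepG2 reporter line, using 16 h compound treatment at 37 C and a FRET substrate fluorescence readout after 2 h.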
# [6] = target: Tumor necrosis factor (Homo sapiens) (UniProt P01375); assay: qHTS assay to identify small molecules that stimulate Tumor Necrosis Factor-alpha (TNF-alpha) secretion (AID 651757; active means well fitted curve in the direction sought with a large enough effect in the signal ratio; inconclusive means small, poorly fitted or top-dose-only effect, or a change in a side signal; inactive means no such curve, though single readings can be large or run the other way; the % refers to the signal ratio; further: 0% is about no effect); conditions: Human cells, HTRF 665/615 ratio; activation (TNF-alpha secretion): at 92.2 µM (top of the series)
# Summary of the method: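 THP-1 cells, 3000/well; compound 17 hrs, 37 C; add cryptate/XL665 anti-TNF-alpha antibody pair; 3 hr RT; TR-FRET (HTRF) read of secreted TNF-alpha. Quantitative HTS format.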
# [7] = qHTS assay to identify small molecules that stimulate interleukin-8 (IL-8) secretion (AID 651758; active means well fitted activation curve with a large enough effect in the signal ratio; inconclusive means small, poorly fitted or top-dose-only effect, or effect the other way, or a change in a side signal; the % refers to the signal ratio; further: potency means the concentration at half of the fitted maximal effect; on activation: 0% is about no effect); conditions: HTRF ratio (665/615); activation: at 92.2 µM (top of the series)
# Summary of the method: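 Secreted IL-8 measured homogeneously by TR-FRET (two labelled anti-IL-8 antibodies, 1-3 h at room temperature) after a 16 h, 37 C compound treatment of THP-1 cells at 2000 cells/well.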
# [8] = qHTS assay for small molecule antagonists of the retinoid-related orphan receptor gamma (ROR-gamma) signaling pathway - cell viability counter screen (AID 720652; active means well fitted curve in the direction sought with a large enough effect in the repeat runs; inconclusive means weak or mixed curves; inactive means no such curve, though single readings can be large; an effect the other way counts as inactive or inconclusive;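 further: CHO reporter cells with doxycycline-induced ROR-gamma expression; compound exposure lasted 16 hr before ATP read; on the % scale 0 is the no-effect control and ±100 the full control effect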)
# Summary of the method: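 CHO RORE-LUC/TET-ROR line, 1,000 cells/well, 37 C 5% CO2 5 hr; cpd or DMSO + doxycycline induction, 16 hr. CellTiter-Glo, 30 min RT, luminescence = ATP content.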
# [9] = Cellular Toxicity (caspase-3) MRC-5 (AID 659; active means well fitted curve in the direction sought with a large enough effect; inconclusive means small, poorly fitted or top-dose-only effect, or another doubt; inactive means no such curve, though single readings can be large; an effect the other way counts as inactive or inconclusive); conditions: MRC-5 cells, luminescence, normalized: DMSO 0%, 10 µM staurosporine 100%; at 91.7 µM (top of the series)
# Summary of the method: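 Luminescent Caspase-Glo 3/7 read-out (1 h, room temperature) after a 16 h, 37 °C compound exposure of MRC-5 lung fibroblasts at 1500 cells/well. Concentration-response AC50 from Hill equation; 0% DMSO, 100% 10 uM staurosporine.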
# [10] = Cell Viability - LYMP1-002 - Assay at 16 hr (AID 948; active means well fitted curve in the direction sought with a large enough effect; inconclusive means small, poorly fitted or top-dose-only effect, or another doubt; inactive means no such curve, though single readings can be large; an effect the other way counts as inactive or inconclusive;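 further: 0% = DMSO alone and full effect = 92 µM tetraoctylammonium bromide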); conditions: LYMP1-002 lymphoblastoid cell viability; at 92.2 µM (top of the series)
# Summary of the method: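 LYMP1-002 human lymphoblastoid cells, 2500/well, were treated with compounds for 16 hr at 37 C in complete medium. Viability was read as intracellular ATP by CellTiter-Glo luminescence, and AC50 was derived from a Hill fit to concentration-response data.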
# [11] = target: Glucocorticoid receptor (Homo sapiens) (UniProt P04150); assay: qHTS assay for small molecule antagonists of glucocorticoid receptor signaling (AID 588533; active means well fitted inhibition curve with a large enough effect in the signal ratio, with a control signal flat, not every such curve was filed as active; inconclusive means small, poorly fitted or top-dose-only effect, or effect the other way, or a change in a side signal; the % refers to the signal ratio;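 further: cells stimulated with 2 nM dexamethasone as agonist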; further: potency means the concentration at half of the fitted maximal effect; on activity change, negative = inhibition: on the % scale 0 is the no-effect control and ±100 the full control effect); conditions: HeLa MMTV-bla, GRE beta-lactamase ratio, antagonist mode, 18 h; activity change, negative = inhibition: at 76.8 µM (top of the series)
# [12] = target: Peroxisome proliferator-activated receptor delta (Homo sapiens) (UniProt Q03181); assay: qHTS assay for small molecule antagonists of peroxisome proliferator-activated receptor delta signaling (AID 588535; active means well fitted inhibition curve with a large enough effect in the signal ratio, with a control signal flat, not every such curve was filed as active; inconclusive means small, poorly fitted or top-dose-only effect, or effect the other way, or a change in a side signal; inactive means no such curve, though single readings can be large or run the other way; the % refers to the signal ratio; further: potency means the concentration at half of the fitted maximal effect); conditions: HEK293T PPARd-UAS-bla, beta-lactamase FRET ratio, 18 h; activity change, negative = inhibition: at 76.7 µM (top of the series) unless noted
# Summary of the method: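 Antagonist-mode qHTS using GeneBLAzer PPAR-delta-UAS-bla HEK293T cells; compound exposure 18 hrs at 37 C over a titration. Ratiometric CCF4 fluorescence at 460/530 nm; concentration-response points fitted to the Hill equation.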
# [13] = qHTS assay for small molecule disruptors of the mitochondrial membrane potential - 5 hr assay (AID 651755); conditions: JC-1-type ratio dye; ratio change, negative = disruption: at 92.2 µM (top of the series); further: potency means the concentration at half of the fitted maximal effect; nearly all actives have a fitted effect of over 40% in size
# Summary of the method: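 Membrane-potential dye readout: red aggregate (540 ex/590 em) versus green monomer (490 ex/535 em) fluorescence after 30 min dye loading, following 5 hr compound exposure at 37C of overnight-plated HepG2 cells.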
# [14] = target: Thyroid hormone receptor beta (Homo sapiens) (UniProt P10828); assay: qHTS assay for small molecule antagonists of thyroid hormone receptor beta signaling (AID 588547; active means well fitted inhibition curve with a large enough effect in the signal ratio, with a control signal flat, not every such curve was filed as active; inconclusive means small, poorly fitted or top-dose-only effect, or effect the other way, or a change in a side signal; the % refers to the signal ratio; further: potency means the concentration at half of the fitted maximal effect;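 on activity change % (negative = inhibition): cells stimulated with 0.4 nM T3 agonist during compound exposure; on the % scale 0 is the no-effect control and ±100 the full control effect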); conditions: TR-UAS-bla HEK293, beta-lactamase ratio, antagonist mode, 18 h
# Summary of the method: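 Inhibition of T3-driven (0.4nM final) beta-lactamase reporter activity was measured over 0.59 nM to 92 uM compound after 18 h at 37 C. The cells were GripTite HEK293 TR-UAS-bla in charcoal/dextran-stripped serum, with CCF4 ratio read-out and IC50 from Hill fits.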
# [15] = target: Retinoic acid receptor RXR-alpha (Homo sapiens) (UniProt P19793); assay: qHTS assay for small molecule agonists of retinoid X receptor alpha signaling (AID 588544); conditions: HEK293T RXRa-UAS-bla, beta-lactamase reporter, 18 h; activation: at 76.7 µM (top of the series); further: potency means the concentration at half of the fitted maximal effect;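 on activation: 0% = DMSO basal wells and 100% = reference agonist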
# [16] = target: Thyroid hormone receptor beta (Homo sapiens) (UniProt P10828); assay: qHTS assay for small molecule agonists of thyroid hormone receptor beta signaling (AID 588545); conditions: TR-UAS-bla GripTite HEK 293, beta-lactamase ratio, agonist mode, 18 h; activation: at 76.7 µM, percent of T3 response, DMSO as zero;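 further: 0% = DMSO only and 100% = 10 nM T3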
# Summary of the method: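 Beta-lactamase reporter activity under TR response element control is measured in HEK 293 cells after 18 hrs compound exposure. Signal is ratiometric CCF4 fluorescence, 460/530 nm.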
# [17] = qHTS assay for small molecule activators of the nuclear factor-kappa B (NF-kB) signaling pathway (AID 651749; active means well fitted activation curve with a large enough effect in the signal ratio; inconclusive means small, poorly fitted or top-dose-only effect, or a change in a side signal; the % refers to the signal ratio; further: % of control where 0% means no effect); conditions: NF-kB-bla ME-180 cells, beta-lactamase FRET ratio, 16 h; activation: active compounds read high
# Summary of the method: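 FRET-based beta-lactamase detection in ME-180 cells reports NF-kB response-element-driven transcription following overnight (16 hr) compound treatment.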
# [18] = qHTS assay for small molecule agonists of the antioxidant response element (ARE) signaling pathway measured by Nrf2-dependant transcriptional activity (AID 720636; active means well fitted curve in the direction sought with a large enough effect in the repeat runs; inconclusive means weak or mixed curves; inactive means no such curve, though single readings can be large; an effect the other way counts as inactive or inconclusive; further: potency means the concentration at half of the fitted maximal effect;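 on activation: HepG2 cells with an ARE-driven luciferase reporter; % of control where 0% means no effect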)
# Summary of the method: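 We exposed ARE-luc HepG2 cells, seeded in assay medium with 1% dialyzed FBS and allowed 6 hr to adhere, to test compounds overnight (16 hr, 37 C) before measuring luciferase with ONE-Glo.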
# [19] = target: Peroxisome proliferator-activated receptor gamma (Homo sapiens) (UniProt P37231); assay: qHTS assay for small molecule agonists of peroxisome proliferator-activated receptor gamma signaling (AID 588536; active means well fitted curve in the direction sought with a large enough effect in the signal ratio, with a control signal flat, not every such curve was filed as active; inconclusive means small, poorly fitted or top-dose-only effect, or effect the other way, or a change in a side signal; inactive means no such curve, though single readings can be large or run the other way; the % refers to the signal ratio; further: potency means the concentration at half of the fitted maximal effect); conditions: HEK293 PPARg-UAS-bla, beta-lactamase ratio, 16 h; activation: at 76.7 µM (top of the series), percent of rosiglitazone response, DMSO as zero
# Summary of the method: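 Cells were plated and held 6–6.5 h at 37 C, then compounds were added as a titration series. After a further 16 h, CCF4 dye was loaded for 2 h at room temperature and emission at 460/530 nm recorded.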
# [20] = target: Vitamin D3 receptor (Homo sapiens) (UniProt P11473); assay: qHTS assay for small molecule antagonists of vitamin D receptor signaling (AID 588541); conditions: HEK293T VDR-UAS-bla, beta-lactamase ratio, antagonist mode; activity change, negative = inhibition: at 76.7 µM (top of the series);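 further: receptor activated by calcitriol during compound treatment; on the % scale 0 is the no-effect control and ±100 the full control effect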
# [21] = MultiTox-Fluor Cytotoxicity Assay - LYMP1-001 - Live Cells (AID 947; active means well fitted curve in the direction sought with a large enough effect; inconclusive means small, poorly fitted or top-dose-only effect, or another doubt; inactive means no such curve, though single readings can be large; an effect the other way counts as inactive or inconclusive;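 further: 0% = DMSO only and full inhibition = tetraoctylammonium bromide control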)
# [22] = MultiTox-Fluor Cytotoxicity Assay - LYMP1-002 - Dead Cells (AID 960; active means well fitted curve in the direction sought with a large enough effect; inconclusive means small, poorly fitted or top-dose-only effect, or another doubt; inactive means no such curve, though single readings can be large; an effect the other way counts as inactive or inconclusive; further: potency means the concentration at half of the fitted maximal effect; nearly all actives have a fitted effect of over 60% in size); conditions: LYMP1-002 lymphoblastoid cells, dead-cell protease fluorescence; cytotoxicity (dead cells): at 46.1 µM (top of the series)
# Summary of the method: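 Readout: fluorescence at 485/520 from cell-impermeant bis-AAF-R110 cleaved by proteases leaking from damaged cells. LYMP1-002 lymphoblastoid line, 16 hr compound treatment at 37 C, concentration-response in qHTS format; Hill-equation AC50 values.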
# [23] = Cell Viability - LYMP2-003 (AID 965; active means well fitted curve in the direction sought with a large enough effect; inconclusive means small, poorly fitted or top-dose-only effect, or another doubt; inactive means no such curve, though single readings can be large; an effect the other way counts as inactive or inconclusive;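 further: cells exposed to compounds for 24 h before reading; 0% = DMSO only and full effect = 92 µM tetraoctylammonium bromide; nearly all actives have a fitted effect of over 50% in size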); conditions: LYMP2-003 lymphoblastoid cell viability; activity change, negative = cytotoxicity: at 92.2 µM (top of the series)
# Summary of the method: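 Human lymphoblastoid LYMP2-003 cells, 2500/well, exposed to compounds for 24 h at 37 C in complete medium. Viability read as intracellular ATP by CellTiter-Glo luminescence; AC50 from Hill-equation fits of qHTS concentration-response data.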
# [24] = activity, negative = inhibition: at 76.8 µM (top of the series) unless noted
# [25] = activation: at 96 µM (top of the series) unless noted
smiles,measurement,setting,value
CCO[Si](CCCN)(OCC)OCC,caspase-3 activation,[1],inactive: 1.79%
same,Potency,[2],inactive
same,"activity, negative = inhibition",[3]; [24],inconclusive: 7.12%
same,"activity, negative = inhibition",[3]; at 76.8 µM (top of the series),inactive: 3.97%
same,Potency,[4],"inconclusive: 56.2 µM [activator, single point]"
same,activation,[5]; [25],inconclusive: 19.1%
same,activation,[5]; at 96 µM (top of the series),inactive: -1%
same,Potency,[6],inactive
same,activation,[7],inconclusive: 29.9%
same,Potency,[8],inactive
O=[N+]([O-])c1c(Cl)cc(Cl)cc1Cl,caspase-3 activation,[9],inactive: 0.872%
same,"activity change, negative = cytotoxicity",[10],inactive: -0.663%
same,Potency,[2],inactive
same,Potency,[3]; [24],inactive
same,Potency,[5]; [25],"inconclusive: 75 µM [activator, partial curve, poor fit]"
same,activation,[7],inconclusive: 15.7%
COc1ccc(N)c(OC)c1,"activity change, negative = inhibition",[11],inconclusive: 24.4%
same,Potency,[12],"inconclusive: 0.447 µM [inhibitor, full curve, poor fit]"
same,activation,[5]; [25],inconclusive: 10.6%
same,Potency,[13],"inconclusive: 37.6 µM [inhibitor, partial curve]"
same,activation (TNF-alpha secretion),[6],inconclusive: -0.144%
same,Potency,[7],"inconclusive: 75 µM [rising, single point]"
CC(C)CCCCOC(=O)c1ccccc1C(=O)OCCCCC(C)C,Potency,[2],inactive
same,Potency,[3]; [24],inactive
same,Potency,[14],"inconclusive: 0.0028 µM [cytotoxic, side channel, full curve, poor fit]"
same,activation,[5]; [25],inconclusive: 9.19%
O=C(OCCOCCOC(=O)c1ccccc1)c1ccccc1,"activity change, negative = inhibition",[11],inconclusive: 14.6%
same,Potency,[3]; [24],inactive
same,Potency,[15],inactive
same,activation,[16],inactive: 6.35%
same,activation,[17],inactive: 0.298%
same,Potency,[18],inactive
CCN(Cc1cccc(S(=O)(=O)O)c1)c1ccc(C(=C2C=CC(=[N+](CC)Cc3cccc(S(=O)(=O)[O-])c3)C=C2)c2ccccc2)cc1,Potency,[2],inactive
same,Potency,[19],"inconclusive: 35.5 µM [side channel, rising, partial curve, poor fit]"
same,"activity, negative = inhibition",[3]; [24],inconclusive: -17.9%
same,"activity change, negative = inhibition",[20],inconclusive: 2.36%
same,Potency,[15],"inconclusive: 44.7 µM [side channel, rising, single point]"
same,Potency,[5]; [25],active: 54.5 µM
same,Potency,[18],"inconclusive: 61.1 µM [activator, partial curve, poor fit]"
C/C(=C\C(C)CC(C)CC(C)C)C1CC(=O)OC1=O (stereo unspecified),Potency,[11],"inconclusive: 39.8 µM [inhibitor, partial curve, poor fit]"
same,"activity, negative = inhibition",[3]; [24],inconclusive: -37.9%
same,activation,[5]; [25],inconclusive: 2.13%
C=CCOC(=O)COCCC(C)C,Potency,[2],inactive
same,"activity, negative = inhibition",[3]; [24],inconclusive: 3.67%
same,activity change % (negative = inhibition),[14],inconclusive: -32.2%
same,activation,[7],inconclusive: -0.895%
Cc1ccc(Br)cc1,Potency,[21],inactive
same,Potency,[11],inactive
same,activation,[7],inconclusive: 21.7%
O=Cc1ccc(C(=O)O)cc1,Potency,[22],"inconclusive: 20 µM [cytotoxic, partial curve, poor fit]"
same,Potency,[23],inactive
same,"activity change, negative = inhibition",[11],inconclusive: 1.7%
same,"activity, negative = inhibition",[3]; [24],inconclusive: 12.6%
same,Potency,[5]; [25],"inconclusive: 75 µM [activator, single point]"
same,Potency,[13],"inconclusive: 42.2 µM [inhibitor, partial curve]"
same,activation,[7],inconclusive: -25.4%

# — PubChem BioAssay (NCATS)
